The list is a part of this screen's results and no random one: it gathers tests that were run many times, whatever their T/C, doses with no T/C, and many T/C values between a quarter and a half above the control. Further doses and runs are listed elsewhere. T/C: endpoint of the treated group in % of that of the vehicle group. Some doses have a count of surviving animals in place of a T/C: the source holds a T/C of zero for them, seemingly a mark for toxic or unscored doses. Some doses without a T/C left all or most animals alive at the check, yet need not have been tolerated: the source hardly ever lists a survival T/C far under the control, and the zero likely stands for such cases as well. Survivors were counted at the toxicity check, usually on the fifth day, unless a day is given; later deaths do not show. Schedule codes are those of the source, read here as Q, the interval in days (D) or hours (H), X, the number of doses. Some doses were run more than once; the results are listed from low to high. Some schedules carry Z or #; the key to these is not given. Some structures stand for samples that the source files as different forms (salt, stereo form or complex); doses refer to the form tested. Where survival is the endpoint, this PubChem deposit counts one and a half times the control or more as active, and values a quarter to a half above the control carry no call in these data; other NCI protocols may use other cut-offs. Some T/C values are followed by the survivors on the day toxicity was checked, most often the fifth; where none is given, no animal had died by that day.
Test system: L1210 leukemia ip in BDF1 mice, survival T/C
Assay: NCI In Vivo Anticancer Drug Screen. Data for tumor model L1210 Leukemia (intraperitoneal) in B6D2F1 (BDF1) mice
Settings: T/C endpoint: mean survival time, higher T/C = longer survival
[1] = dose: 200.0 mg/kg/injection, schedule: Q01DX001 (ip), vehicle: saline
[2] = dose: 400.0 mg/kg/injection, schedule: Q01DX001 (ip), vehicle: saline
[3] = dose: 100.0 mg/kg/injection, schedule: Q04DX002 (ip), vehicle: saline with Tween-80
[4] = dose: 200.0 mg/kg/injection, schedule: Q04DX002 (ip), vehicle: saline with Tween-80
[5] = dose: 400.0 mg/kg/injection, schedule: Q04DX002 (ip), vehicle: saline with Tween-80
[6] = dose: 200.0 mg/kg/injection, schedule: Q04DX003 (ip), vehicle: saline
[7] = dose: 400.0 mg/kg/injection, schedule: Q04DX003 (ip), vehicle: Klucel (hydroxypropylcellulose) (HPC)
[8] = dose: 400.0 mg/kg/injection, schedule: Q04DX003 (ip), vehicle: saline
[9] = dose: 400.0 mg/kg/injection, schedule: Q04DX003 (ip), vehicle: saline with Tween-80
[10] = dose: 400.0 mg/kg/injection, schedule: Q01DX001 (ip), vehicle: carboxymethylcellulose (CMC)
[11] = dose: 200.0 mg/kg/injection, schedule: Q01DX009 (ip), vehicle: Klucel (hydroxypropylcellulose) (HPC)
[12] = dose: 100.0 mg/kg/injection, schedule: Q01DX009 (ip), vehicle: saline
[13] = dose: 200.0 mg/kg/injection, schedule: Q04DX003 (ip), vehicle: Klucel (hydroxypropylcellulose) (HPC)

**Q.** With `N#CC(C#N)=Cc1ccc(O)cc1` as the molecule, how does the survivor count (dose: 100.0 mg/kg/injection, schedule: Q01DX001 (ip), vehicle: saline) read?
**A.** 2 of 4

**Q.** What about the survivor count [1] of the same molecule?
**A.** 0 of 4

**Q.** What about the survivor count [2] of the same molecule?
**A.** 0 of 4

**Q.** For `O=C(CBr)Nc1cccc(S(=O)(=O)F)c1`, which survivor count (dose: 20.0 mg/kg/injection, schedule: Q01DX001 (ip), vehicle: carboxymethylcellulose (CMC)) is on record?
**A.** 3 of 6

**Q.** What about the survivor count (dose: 40.0 mg/kg/injection, schedule: Q01DX001 (ip), vehicle: carboxymethylcellulose (CMC)) of the same molecule?
**A.** 3 of 6

**Q.** And the survivor count (dose: 75.0 mg/kg/injection, schedule: Q01DX001 (ip), vehicle: carboxymethylcellulose (CMC))?
**A.** 0 of 6

**Q.** What about the survivor count (dose: 150.0 mg/kg/injection, schedule: Q01DX001 (ip), vehicle: carboxymethylcellulose (CMC)) of the same molecule?
**A.** 0 of 6

**Q.** And the survivor count (dose: 300.0 mg/kg/injection, schedule: Q01DX001 (ip), vehicle: carboxymethylcellulose (CMC))?
**A.** 0 of 6

**Q.** For `CCc1cccc(CC)c1NC(N)=S`, which T/C [3] is on record?
**A.** 128 % of control [2 of 3 alive]

**Q.** What about the survivor count [4] of the same molecule?
**A.** 0 of 3

**Q.** What about the survivor count [5] of the same molecule?
**A.** 0 of 3

**Q.** With `FC(F)(F)C(F)(OCCC[Si](Cl)(Cl)Cl)C(F)(F)F` as the molecule, how does the survivor count (dose: 75.0 mg/kg/injection, schedule: Q01DX001 (ip), vehicle: saline) read?
**A.** 0 of 6

**Q.** And the survivor count (dose: 150.0 mg/kg/injection, schedule: Q01DX001 (ip), vehicle: saline)?
**A.** 0 of 6

**Q.** And the survivor count (dose: 300.0 mg/kg/injection, schedule: Q01DX001 (ip), vehicle: saline)?
**A.** 0 of 6

**Q.** How did the survivor count [6] turn out when `Nc1ccc(N=Nc2ccccc2)c(N)n1` was run?
**A.** 2 of 4

**Q.** And the survivor count [7]?
**A.** 1 of 6

**Q.** What about the survivor count [8] of the same molecule?
**A.** 0 of 4

**Q.** Which results are given for `CCC1=CC(=O)C(C)=C(C)C1=O`?
**A.** survivor count (dose: 200.0 mg/kg/injection, schedule: Q04DX003 (ip), vehicle: other): 0 of 6; survivor count (dose: 400.0 mg/kg/injection, schedule: Q04DX003 (ip), vehicle: other): 0 of 6

**Q.** Which survivor count [9] does the source give for `COC(=O)c1ccccc1C(=O)O` here?
**A.** 1 of 6

**Q.** For `CN=C(NC(C=O)C(O)C(O)C(O)CO)c1ccc(NC(=O)c2ccc(C(=O)Nc3ccc(C(=NC)NC(C=O)C(O)C(O)C(O)CO)cc3)cc2)cc1` (stereo not given), which T/C (dose: 250.0 mg/kg/injection, schedule: Q01DX Z (ip), vehicle: water) is on record?
**A.** 129 % of control [5 of 6 alive]

**Q.** And the survivor count (dose: 500.0 mg/kg/injection, schedule: Q01DX Z (ip), vehicle: water)?
**A.** 0 of 6

**Q.** Which results are given for `CCC[CH2][Sn]1([CH2]CCC)[O]C(=O)c2cccc([N+](=O)[O-])c2C(=O)[O]1`?
**A.** survivor count [1]: 1 of 4; survivor count [2]: 0 of 4

**Q.** How did the survivor count (dose: 200.0 mg/kg/injection, schedule: Q01DX009 (ip), vehicle: saline) turn out when `CN(CCN(C)Cc1ccccc1)Cc1ccccc1` was run?
**A.** 0 of 6

**Q.** And the survivor count [8]?
**A.** 0 of 6

**Q.** With `CC1(C)CC(N=Cc2ccccc2O)CC(C)(C)N1O.CC1(C)CC(N=Cc2ccccc2O)CC(C)(C)N1O.[Co]` as the molecule, how does the survivor count [9] read?
**A.** 2 of 4

**Q.** How did the survivor count [10] turn out when `ClCN(CCl)CCl` was run?
**A.** 0 of 4

**Q.** `CC([NH-])C[NH-].[Cl][Pd][Cl]` (stereo not given) was tested. Which survivor count (dose: 25.0 mg/kg/injection, schedule: Q04DX002 (ip), vehicle: Klucel (hydroxypropylcellulose) (HPC)) did it give?
**A.** 3 of 3

**Q.** For `C/C=C/Cn1cnc2c1c(=O)n(C)c(=O)n2C`, which survivor count [9] is on record?
**A.** 2 of 3

**Q.** `O=c1ccc(=O)c2c(=O)c3ccccc3c(=O)c1=2` was tested. Which survivor count [11] did it give?
**A.** 3 of 6

**Q.** And the survivor count [7]?
**A.** 3 of 6

**Q.** Which results are given for `CC[NH-].CC[NH-].[I][Pt+2][I]`?
**A.** survivor count [12]: 2 of 6; survivor count [6]: 6 of 6; survivor count [8]: 4 of 6

**Q.** With `CCOC(=O)N(OCc1ccccc1)P(=O)(N1CC1(C)C)N1CC1(C)C` (stereo not given) as the molecule, how does the survivor count (dose: 400.0 mg/kg/injection, schedule: Q04DX002 (ip), vehicle: saline) read?
**A.** 0 of 3

**Q.** Which results are given for `CC(=C(C#N)C#N)c1ccc(Cl)cc1`?
**A.** survivor count [13]: 2 of 6; survivor count [7]: 0 of 6

**Q.** Which survivor count (dose: 400.0 mg/kg/injection, schedule: Q01DX009 (ip), vehicle: Klucel (hydroxypropylcellulose) (HPC)) does the source give for `CNO` here?
**A.** 0 of 6

**Q.** `CCC(=O)OCC(=O)[C@]1(O)Cc2c(O)c3c(c(O)c2[C@@H](OC2CC(N)C(O)C(C)O2)C1)C(=O)c1c(OC)cccc1C3=O` (stereo not given in full) was tested. Which T/C (dose: 0.66 mg/kg/injection, schedule: Q04DX003 (ip), vehicle: saline) did it give?
**A.** 135 % of control

**Q.** What about the T/C (dose: 1.0 mg/kg/injection, schedule: Q04DX003 (ip), vehicle: saline) of the same molecule?
**A.** 126 % of control

**Q.** And the T/C (dose: 1.5 mg/kg/injection, schedule: Q04DX003 (ip), vehicle: saline)?
**A.** 139 % of control

**Q.** For `COC(=O)c1ccc(OC)c2nc3c(C=O)c(OC)cc(OC)c3nc12`, which survivor count (dose: 100.0 mg/kg/injection, schedule: Q01DX009 (ip), vehicle: saline with Tween-80) is on record?
**A.** 3 of 6

**Q.** What about the survivor count (dose: 200.0 mg/kg/injection, schedule: Q01DX009 (ip), vehicle: saline with Tween-80) of the same molecule?
**A.** 1 of 6

**Q.** And the survivor count (dose: 400.0 mg/kg/injection, schedule: Q01DX009 (ip), vehicle: saline with Tween-80)?
**A.** 0 of 6

**Q.** What does the source list for `CC(=O)[O][Hg][CH]1CCC2OC1CC[CH]2[Hg][O]C(C)=O` (stereo not given)?
**A.** survivor count (dose: 50.0 mg/kg/injection, schedule: Q01DX009 (ip), vehicle: Klucel (hydroxypropylcellulose) (HPC)): 1 of 6; survivor count (dose: 100.0 mg/kg/injection, schedule: Q01DX009 (ip), vehicle: Klucel (hydroxypropylcellulose) (HPC)): 3 of 6; survivor count (dose: 100.0 mg/kg/injection, schedule: Q04DX003 (ip), vehicle: Klucel (hydroxypropylcellulose) (HPC)): 0 of 6 and 3 of 6; survivor count [11]: 0 of 6; survivor count [13]: 0 of 6; survivor count [7]: 0 of 6

**Q.** For `CCOc1ccc(O)cc1`, which survivor count (dose: 400.0 mg/kg/injection, schedule: Q04DX002 (ip), vehicle: saline + alcohol) is on record?
**A.** 1 of 3

**Q.** How did the survivor count [5] turn out when `O=C(Nc1cccc2ccccc12)OCc1ccco1` was run?
**A.** 6 of 6

**Q.** With `CSc1cc(C(=O)O)nc(SC)n1` as the molecule, how does the survivor count (dose: 200.0 mg/kg/injection, schedule: Q01DX Z (ip), vehicle: methylcellulose (MC)) read?
**A.** 0 of 6

**Q.** `CCCCCCCC(=O)N(CCN(N=O)C(=O)CCCCCCC)N=O` was tested. Which survivor count [1] did it give?
**A.** 6 of 6

**Q.** With `CCOc1ccc(Br)cc1/C=C(\C#N)c1ccc([N+](=O)[O-])cc1` as the molecule, how does the survivor count (dose: 12.5 mg/kg/injection, schedule: Q01DX009 (ip), vehicle: saline with Tween-80) read?
**A.** 6 of 6

**Q.** And the survivor count (dose: 50.0 mg/kg/injection, schedule: Q01DX009 (ip), vehicle: saline with Tween-80)?
**A.** 5 of 6

**Q.** And the survivor count (dose: 100.0 mg/kg/injection, schedule: Q04DX003 (ip), vehicle: saline with Tween-80)?
**A.** 6 of 6

**Q.** And the survivor count (dose: 200.0 mg/kg/injection, schedule: Q04DX003 (ip), vehicle: saline with Tween-80)?
**A.** 6 of 6

**Q.** What about the survivor count [9] of the same molecule?
**A.** 6 of 6

**Q.** `CC(C)(C)NCCCN1CC1(C)C` (stereo not given) was tested. Which survivor count (dose: 50.0 mg/kg/injection, schedule: Q01DX009 (ip), vehicle: saline) did it give?
**A.** 0 of 6

**Q.** And the survivor count [12]?
**A.** 0 of 6

**Q.** What about the survivor count [1] of the same molecule?
**A.** 0 of 6

**Q.** And the survivor count [2]?
**A.** 0 of 6

**Q.** Which survivor count (dose: 300.0 mg/kg/injection, schedule: Q01DX001 (ip), vehicle: other) does the source give for `N#C/C=C/C=C/C#N` here?
**A.** 1 of 6

**Q.** `CO[C@@H]1CCCCCC[C@H]1[Hg][Cl]` was tested. Which survivor count (dose: 50.0 mg/kg/injection, schedule: Q01DX001 (ip), vehicle: carboxymethylcellulose (CMC)) did it give?
**A.** 0 of 4

**Q.** And the survivor count (dose: 80.0 mg/kg/injection, schedule: Q01DX001 (ip), vehicle: carboxymethylcellulose (CMC))?
**A.** 0 of 4

**Q.** What about the survivor count (dose: 100.0 mg/kg/injection, schedule: Q01DX001 (ip), vehicle: carboxymethylcellulose (CMC)) of the same molecule?
**A.** 0 of 4

**Q.** And the survivor count (dose: 200.0 mg/kg/injection, schedule: Q01DX001 (ip), vehicle: carboxymethylcellulose (CMC))?
**A.** 0 of 4

**Q.** What about the survivor count [10] of the same molecule?
**A.** 0 of 4

**Q.** For `O=C(O)C(O)C(=O)O`, which survivor count [8] is on record?
**A.** 2 of 6

**Q.** For `O=[N+]([O-])c1ccc(C(Br)Br)cc1`, which survivor count [7] is on record?
**A.** 0 of 6

**Q.** Which results are given for `c1cc[c]([Sn]([c]2ccccc2)([c]2ccccc2)[n]2nnc3ccccc32)cc1`?
**A.** survivor count [3]: 0 of 3; survivor count [4]: 0 of 3; survivor count [5]: 0 of 3

From PubChem BioAssay AID248 (DTP/NCI, 2004)
